Results are given in words; binding and its absence hold for the method and conditions named. Binding seen in cells or lysates may run through a third protein. Here binding means that the protein was enriched with, or labelled near, the bait; the list need not be complete.

By UniProt entry, the sequences of proteins in these tests, tags left out.
UniProt Q76MZ3: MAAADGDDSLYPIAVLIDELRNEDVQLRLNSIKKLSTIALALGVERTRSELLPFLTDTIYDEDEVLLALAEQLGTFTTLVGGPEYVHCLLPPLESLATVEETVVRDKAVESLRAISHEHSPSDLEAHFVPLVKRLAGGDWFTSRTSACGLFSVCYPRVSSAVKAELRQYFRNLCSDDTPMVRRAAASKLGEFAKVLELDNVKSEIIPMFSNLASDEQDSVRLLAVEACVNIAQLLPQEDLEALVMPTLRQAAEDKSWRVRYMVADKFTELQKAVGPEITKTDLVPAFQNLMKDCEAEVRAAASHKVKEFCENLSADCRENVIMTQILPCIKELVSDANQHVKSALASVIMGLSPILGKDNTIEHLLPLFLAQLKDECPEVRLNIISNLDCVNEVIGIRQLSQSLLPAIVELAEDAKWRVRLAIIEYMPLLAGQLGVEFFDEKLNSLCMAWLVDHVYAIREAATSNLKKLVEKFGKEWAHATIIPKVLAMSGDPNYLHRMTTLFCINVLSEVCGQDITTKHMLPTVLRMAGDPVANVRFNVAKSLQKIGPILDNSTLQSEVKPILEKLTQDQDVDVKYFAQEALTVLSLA
UniProt P70288: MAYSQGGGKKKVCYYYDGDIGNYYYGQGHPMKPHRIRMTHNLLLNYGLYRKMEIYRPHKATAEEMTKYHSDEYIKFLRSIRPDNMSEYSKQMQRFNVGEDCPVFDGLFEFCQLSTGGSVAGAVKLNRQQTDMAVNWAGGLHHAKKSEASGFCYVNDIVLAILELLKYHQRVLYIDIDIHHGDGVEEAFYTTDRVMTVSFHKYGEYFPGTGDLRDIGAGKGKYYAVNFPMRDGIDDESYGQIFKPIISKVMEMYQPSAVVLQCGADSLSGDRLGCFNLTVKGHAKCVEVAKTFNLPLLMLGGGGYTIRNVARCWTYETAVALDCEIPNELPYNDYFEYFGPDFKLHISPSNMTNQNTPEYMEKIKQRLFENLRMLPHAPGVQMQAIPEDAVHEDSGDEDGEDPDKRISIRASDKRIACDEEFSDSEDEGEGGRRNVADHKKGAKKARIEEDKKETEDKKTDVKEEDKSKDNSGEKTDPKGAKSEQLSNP
UniProt P62715: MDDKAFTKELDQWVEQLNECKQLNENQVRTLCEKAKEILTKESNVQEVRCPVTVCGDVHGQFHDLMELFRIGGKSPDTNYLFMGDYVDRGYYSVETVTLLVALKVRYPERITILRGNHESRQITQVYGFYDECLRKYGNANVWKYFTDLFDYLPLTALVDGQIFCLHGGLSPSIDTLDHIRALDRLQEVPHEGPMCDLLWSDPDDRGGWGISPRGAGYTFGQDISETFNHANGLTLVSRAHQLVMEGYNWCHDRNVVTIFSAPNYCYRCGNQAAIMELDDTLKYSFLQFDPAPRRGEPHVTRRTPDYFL

The text below walks through data of article PMC8674339.

This assay addresses Ppp2r1a (PP2A scaffold protein, structural subunit A) (mouse (endogenous in intestinal organoids and CT26)) (UniProt Q76MZ3). In words: affinity purification with mass spectrometry; wild-type mouse intestinal organoid lysate precipitated with a PPP2R1A-specific antibody (GTX102206) or isotype IgG control on Capturem Protein A columns; eluates trypsin digested, Q Exactive, MASCOT.

For “histone deacetylase (HDAC)2 (from UniProt P70288 1-488)”, the binding entry is “binds”.

“protein phosphatase 2 catalytic subunit beta (PPP2CB) (from UniProt P62715 1-309)”: the binding result is reported as “binds”.
